The record followed here is the supplement of paper PMC10849652.

Protein sequences, listed by entry. Tags and fused reporters are not part of them. Lines headed by an entry give the natural chain unless they say otherwise; changes in a name come on top.
UniProt Q9UJZ1: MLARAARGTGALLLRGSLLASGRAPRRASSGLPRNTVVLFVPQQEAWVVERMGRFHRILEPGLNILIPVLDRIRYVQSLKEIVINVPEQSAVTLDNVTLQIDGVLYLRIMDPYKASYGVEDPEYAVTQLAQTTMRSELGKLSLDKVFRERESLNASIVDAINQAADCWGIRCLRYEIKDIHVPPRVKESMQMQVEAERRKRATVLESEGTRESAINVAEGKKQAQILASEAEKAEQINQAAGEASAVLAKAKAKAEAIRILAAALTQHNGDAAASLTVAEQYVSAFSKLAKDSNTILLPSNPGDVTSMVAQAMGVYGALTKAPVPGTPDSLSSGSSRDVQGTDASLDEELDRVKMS
UniProt Q9ULQ0: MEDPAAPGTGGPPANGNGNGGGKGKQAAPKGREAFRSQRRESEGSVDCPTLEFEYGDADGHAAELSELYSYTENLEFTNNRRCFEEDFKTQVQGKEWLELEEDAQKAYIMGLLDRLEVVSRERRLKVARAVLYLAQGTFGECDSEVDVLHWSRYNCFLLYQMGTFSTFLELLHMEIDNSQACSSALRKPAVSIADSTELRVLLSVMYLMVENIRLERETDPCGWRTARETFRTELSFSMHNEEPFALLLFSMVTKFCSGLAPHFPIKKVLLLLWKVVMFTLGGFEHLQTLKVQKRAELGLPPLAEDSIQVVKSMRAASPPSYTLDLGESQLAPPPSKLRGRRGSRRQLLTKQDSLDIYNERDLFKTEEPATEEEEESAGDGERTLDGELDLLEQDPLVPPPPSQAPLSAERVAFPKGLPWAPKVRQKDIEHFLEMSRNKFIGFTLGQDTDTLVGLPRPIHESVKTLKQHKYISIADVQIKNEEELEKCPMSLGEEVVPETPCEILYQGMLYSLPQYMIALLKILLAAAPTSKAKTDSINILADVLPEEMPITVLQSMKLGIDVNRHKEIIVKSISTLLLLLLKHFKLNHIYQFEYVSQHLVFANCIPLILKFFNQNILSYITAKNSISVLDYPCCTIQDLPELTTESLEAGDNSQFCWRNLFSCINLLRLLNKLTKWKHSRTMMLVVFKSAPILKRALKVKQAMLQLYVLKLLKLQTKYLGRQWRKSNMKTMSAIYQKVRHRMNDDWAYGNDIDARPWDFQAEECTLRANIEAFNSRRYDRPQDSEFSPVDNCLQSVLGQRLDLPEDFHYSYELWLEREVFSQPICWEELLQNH
UniProt Q9UH99: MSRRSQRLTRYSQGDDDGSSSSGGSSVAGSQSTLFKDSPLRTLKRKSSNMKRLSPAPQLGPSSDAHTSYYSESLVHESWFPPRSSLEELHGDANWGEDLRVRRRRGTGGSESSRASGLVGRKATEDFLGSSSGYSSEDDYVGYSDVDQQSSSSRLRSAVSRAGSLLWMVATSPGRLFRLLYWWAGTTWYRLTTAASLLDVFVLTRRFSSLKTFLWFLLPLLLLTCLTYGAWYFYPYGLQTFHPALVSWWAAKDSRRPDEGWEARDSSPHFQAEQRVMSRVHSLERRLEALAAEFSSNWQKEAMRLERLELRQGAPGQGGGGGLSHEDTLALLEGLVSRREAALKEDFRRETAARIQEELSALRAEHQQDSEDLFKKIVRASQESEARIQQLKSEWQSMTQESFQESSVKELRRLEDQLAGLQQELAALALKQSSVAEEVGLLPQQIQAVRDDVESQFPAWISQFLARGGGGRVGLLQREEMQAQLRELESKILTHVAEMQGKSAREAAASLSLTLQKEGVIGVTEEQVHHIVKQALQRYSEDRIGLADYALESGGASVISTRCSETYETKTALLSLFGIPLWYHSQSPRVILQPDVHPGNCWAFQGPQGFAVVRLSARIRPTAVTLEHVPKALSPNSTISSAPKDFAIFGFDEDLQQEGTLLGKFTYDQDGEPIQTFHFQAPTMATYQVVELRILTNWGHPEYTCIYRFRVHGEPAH
UniProt Q13188: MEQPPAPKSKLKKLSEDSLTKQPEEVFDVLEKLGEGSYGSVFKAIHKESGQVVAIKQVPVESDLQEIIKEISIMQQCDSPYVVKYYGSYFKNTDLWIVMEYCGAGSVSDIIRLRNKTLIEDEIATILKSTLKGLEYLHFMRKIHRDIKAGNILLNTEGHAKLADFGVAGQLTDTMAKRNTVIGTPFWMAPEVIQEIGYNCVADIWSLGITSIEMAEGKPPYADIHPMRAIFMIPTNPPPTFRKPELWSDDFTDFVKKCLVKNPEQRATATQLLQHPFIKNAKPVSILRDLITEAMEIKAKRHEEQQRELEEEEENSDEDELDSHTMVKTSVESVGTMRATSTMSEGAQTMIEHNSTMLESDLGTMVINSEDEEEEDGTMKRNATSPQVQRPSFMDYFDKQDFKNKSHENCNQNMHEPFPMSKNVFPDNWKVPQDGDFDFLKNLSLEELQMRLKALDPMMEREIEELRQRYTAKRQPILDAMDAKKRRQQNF
UniProt P37802: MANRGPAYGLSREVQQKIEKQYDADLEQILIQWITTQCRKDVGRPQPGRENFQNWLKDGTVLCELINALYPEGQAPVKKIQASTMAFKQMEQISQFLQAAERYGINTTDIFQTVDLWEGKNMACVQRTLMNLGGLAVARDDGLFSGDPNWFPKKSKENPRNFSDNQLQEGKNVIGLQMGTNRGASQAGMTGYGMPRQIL
UniProt Q9NVG8: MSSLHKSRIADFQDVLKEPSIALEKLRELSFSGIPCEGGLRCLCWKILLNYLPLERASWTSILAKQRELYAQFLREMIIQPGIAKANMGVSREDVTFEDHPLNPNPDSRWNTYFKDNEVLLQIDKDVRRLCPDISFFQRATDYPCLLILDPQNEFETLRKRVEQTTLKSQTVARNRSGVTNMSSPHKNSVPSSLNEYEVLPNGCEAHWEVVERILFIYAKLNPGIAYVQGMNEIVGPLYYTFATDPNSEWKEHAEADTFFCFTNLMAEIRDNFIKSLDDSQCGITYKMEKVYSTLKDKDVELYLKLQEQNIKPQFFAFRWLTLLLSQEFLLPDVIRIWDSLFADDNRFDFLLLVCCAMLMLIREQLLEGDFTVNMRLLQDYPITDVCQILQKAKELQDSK
UniProt Q4KMP7: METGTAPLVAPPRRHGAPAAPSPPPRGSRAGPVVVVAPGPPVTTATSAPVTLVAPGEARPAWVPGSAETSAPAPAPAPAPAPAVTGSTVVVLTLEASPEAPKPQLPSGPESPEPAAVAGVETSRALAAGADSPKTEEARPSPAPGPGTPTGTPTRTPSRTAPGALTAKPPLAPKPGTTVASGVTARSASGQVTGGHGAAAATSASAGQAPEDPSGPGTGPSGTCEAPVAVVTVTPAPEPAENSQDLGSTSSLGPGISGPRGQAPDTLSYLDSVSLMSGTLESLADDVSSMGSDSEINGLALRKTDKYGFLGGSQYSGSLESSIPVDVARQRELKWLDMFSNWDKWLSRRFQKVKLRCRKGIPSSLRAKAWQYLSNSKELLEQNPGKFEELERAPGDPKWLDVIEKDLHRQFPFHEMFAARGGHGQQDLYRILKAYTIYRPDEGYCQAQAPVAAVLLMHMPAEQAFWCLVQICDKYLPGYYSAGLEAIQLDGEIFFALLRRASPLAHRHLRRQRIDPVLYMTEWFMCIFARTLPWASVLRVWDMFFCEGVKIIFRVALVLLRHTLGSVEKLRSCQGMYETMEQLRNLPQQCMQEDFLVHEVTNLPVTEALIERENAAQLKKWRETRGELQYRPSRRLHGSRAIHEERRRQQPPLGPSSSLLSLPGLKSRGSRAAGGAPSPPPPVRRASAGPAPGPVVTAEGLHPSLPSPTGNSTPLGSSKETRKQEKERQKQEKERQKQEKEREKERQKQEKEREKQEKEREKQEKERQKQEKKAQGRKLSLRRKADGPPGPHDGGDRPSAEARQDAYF
UniProt O15056: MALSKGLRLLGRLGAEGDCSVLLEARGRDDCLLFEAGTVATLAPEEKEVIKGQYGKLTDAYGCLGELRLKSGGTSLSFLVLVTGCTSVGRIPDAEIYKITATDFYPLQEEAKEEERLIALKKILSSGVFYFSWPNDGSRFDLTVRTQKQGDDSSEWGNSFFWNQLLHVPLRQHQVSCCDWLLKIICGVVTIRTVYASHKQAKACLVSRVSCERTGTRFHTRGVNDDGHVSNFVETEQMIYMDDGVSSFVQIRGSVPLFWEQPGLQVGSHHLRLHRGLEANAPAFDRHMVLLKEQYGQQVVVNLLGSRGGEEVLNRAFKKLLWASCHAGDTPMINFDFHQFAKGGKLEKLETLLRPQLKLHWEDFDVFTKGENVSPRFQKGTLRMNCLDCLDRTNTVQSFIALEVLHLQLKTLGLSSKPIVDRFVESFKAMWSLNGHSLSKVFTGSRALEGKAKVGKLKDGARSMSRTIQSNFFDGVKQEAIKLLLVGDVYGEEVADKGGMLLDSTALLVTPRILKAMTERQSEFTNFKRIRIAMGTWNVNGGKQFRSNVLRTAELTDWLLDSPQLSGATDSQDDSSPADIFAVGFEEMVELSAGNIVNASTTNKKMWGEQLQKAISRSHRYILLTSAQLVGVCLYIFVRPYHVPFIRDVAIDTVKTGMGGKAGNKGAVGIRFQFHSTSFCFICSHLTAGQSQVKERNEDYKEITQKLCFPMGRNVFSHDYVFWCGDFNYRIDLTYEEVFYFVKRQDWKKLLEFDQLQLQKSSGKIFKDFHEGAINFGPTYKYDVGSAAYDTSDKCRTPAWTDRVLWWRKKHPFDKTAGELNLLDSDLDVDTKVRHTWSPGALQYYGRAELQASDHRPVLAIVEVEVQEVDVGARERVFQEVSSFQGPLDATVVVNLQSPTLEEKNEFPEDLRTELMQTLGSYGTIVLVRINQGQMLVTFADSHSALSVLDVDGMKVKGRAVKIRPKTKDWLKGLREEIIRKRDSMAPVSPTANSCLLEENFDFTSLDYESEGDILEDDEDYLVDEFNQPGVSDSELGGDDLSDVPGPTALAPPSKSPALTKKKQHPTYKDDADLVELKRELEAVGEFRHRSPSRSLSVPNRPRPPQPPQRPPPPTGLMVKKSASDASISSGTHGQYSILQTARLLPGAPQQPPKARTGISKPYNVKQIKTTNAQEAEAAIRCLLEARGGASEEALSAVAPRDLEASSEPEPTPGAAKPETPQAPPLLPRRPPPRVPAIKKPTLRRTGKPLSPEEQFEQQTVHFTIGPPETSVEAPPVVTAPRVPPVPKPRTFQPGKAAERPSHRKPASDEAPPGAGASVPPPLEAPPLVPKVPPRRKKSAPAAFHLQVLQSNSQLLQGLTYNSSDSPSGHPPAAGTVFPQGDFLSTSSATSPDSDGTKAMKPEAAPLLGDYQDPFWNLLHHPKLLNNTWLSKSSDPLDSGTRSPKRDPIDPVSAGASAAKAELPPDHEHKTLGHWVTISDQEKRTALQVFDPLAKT
UniProt Q15208: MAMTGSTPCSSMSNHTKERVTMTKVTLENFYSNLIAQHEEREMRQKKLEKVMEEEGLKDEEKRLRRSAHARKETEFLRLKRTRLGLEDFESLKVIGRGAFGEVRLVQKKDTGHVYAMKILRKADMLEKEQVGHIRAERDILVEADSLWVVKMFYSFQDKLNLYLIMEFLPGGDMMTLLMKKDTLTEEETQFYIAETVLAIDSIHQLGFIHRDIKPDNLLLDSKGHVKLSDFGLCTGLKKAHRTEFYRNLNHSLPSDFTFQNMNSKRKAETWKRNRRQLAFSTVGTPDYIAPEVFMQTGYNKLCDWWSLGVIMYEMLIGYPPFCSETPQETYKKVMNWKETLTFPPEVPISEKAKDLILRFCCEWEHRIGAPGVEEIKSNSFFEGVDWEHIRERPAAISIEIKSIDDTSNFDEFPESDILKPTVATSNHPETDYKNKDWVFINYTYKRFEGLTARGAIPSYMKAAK
UniProt O75410: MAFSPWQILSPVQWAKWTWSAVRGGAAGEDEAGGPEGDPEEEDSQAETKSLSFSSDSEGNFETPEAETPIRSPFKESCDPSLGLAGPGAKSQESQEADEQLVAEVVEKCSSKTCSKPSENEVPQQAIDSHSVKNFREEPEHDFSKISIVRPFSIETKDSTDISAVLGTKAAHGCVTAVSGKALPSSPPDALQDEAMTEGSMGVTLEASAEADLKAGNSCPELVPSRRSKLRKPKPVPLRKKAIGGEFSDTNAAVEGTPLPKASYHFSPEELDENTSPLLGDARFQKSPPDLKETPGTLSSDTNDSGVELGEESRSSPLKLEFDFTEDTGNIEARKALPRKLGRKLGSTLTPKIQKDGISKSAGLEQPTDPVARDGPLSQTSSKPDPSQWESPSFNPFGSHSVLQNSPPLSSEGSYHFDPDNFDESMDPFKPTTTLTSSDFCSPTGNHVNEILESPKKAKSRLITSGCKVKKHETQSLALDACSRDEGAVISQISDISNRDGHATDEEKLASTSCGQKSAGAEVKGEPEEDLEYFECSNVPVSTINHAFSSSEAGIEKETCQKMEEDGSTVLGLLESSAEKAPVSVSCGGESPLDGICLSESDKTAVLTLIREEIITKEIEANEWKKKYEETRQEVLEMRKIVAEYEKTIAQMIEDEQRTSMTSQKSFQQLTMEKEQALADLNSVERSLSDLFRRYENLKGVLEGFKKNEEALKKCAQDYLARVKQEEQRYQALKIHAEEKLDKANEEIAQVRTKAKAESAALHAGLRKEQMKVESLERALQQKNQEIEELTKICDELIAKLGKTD

This is one part of the list.

Compound in the assay: C1=CC2=NC=CN=C2C=C1/C=C/3\C(=O)NC(=O)S3
As to the kind of experiment: log2 fold change, soluble protein after heating vs DMSO (PISA); higher = thermal stabilisation; K562 cells, 10 uM, 30 min; active = over 0.2 and 3.5 SD of the protein, either way, in both replicates (recomputed). Put shortly:
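K562 cells at 2×10^6 cells/mL were exposed to 10 μM compound for 30 min, then aliquots were heated for 3 min across 48°C-58°C, pooled, and extracted in PBS containing 0.5% NP-40 at 4°C. The supernatant after 21,000xg for 90 min was taken as soluble protein and measured by TMTpro 16plex LC-MS/MS with channel sums equalised. Thermal stability is reported relative to control samples, with values from duplicates. Fold changes are given on a log2 scale.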
Regarding STOML2 (UniProt Q9UJZ1), the log2 fold change is inactive: 0.014. Consider STRBP (UniProt Q96SI9), for which the log2 fold change was inactive: 0.052. With STRIP2 (UniProt Q9ULQ0), the log2 fold change is inactive: 0.1.

On to SUOX (UniProt P51687), for which the log2 fold change is inactive: 0.036. For the target TACO1 (UniProt Q9BSH4), the log2 fold change is inactive: -0.038. SUN2 (UniProt Q9UH99): the log2 fold change is inactive: 0.02.

Consider TARSL2 (UniProt A2RTX5), for which the log2 fold change was inactive: 0.027. Turning to TAX1BP1 (UniProt Q86VP1), the log2 fold change was inactive: 0.037.

On to TAF4 (UniProt O00268), for which the log2 fold change is inactive: 0.094.

As to STX12 (UniProt Q86Y82), the log2 fold change is inactive: 0.033. Regarding STK3 isoform 2 (UniProt Q13188), the log2 fold change was inactive: 0.016. On to TAGLN2 isoform 2 (UniProt P37802), for which the log2 fold change was inactive: 0.001. Take TANK (UniProt Q92844): the log2 fold change was inactive: 0.053. Take SUPT4H1 (UniProt P63272): the log2 fold change was inactive: -0.02. As for SYPL1 (UniProt Q16563), the figure is inactive: 0.034; as for STX4 (UniProt Q12846), inactive: 0. In the case of TBC1D13 (UniProt Q9NVG8), the log2 fold change is inactive: 0.006. As for SUCLG1 (UniProt P53597), the figure is inactive: -0.017; as for TAF8 isoform 2 (UniProt Q7Z7C8), inactive: 0.084. In the case of STXBP2 isoform 3 (UniProt Q15833), the log2 fold change was inactive: -0.004.

In the case of TAF15 (UniProt Q92804), the log2 fold change was inactive: 0.001.

For SUB1 (UniProt P53999), the log2 fold change was inactive: 0.001. Take TARS2 (UniProt Q9BW92): the log2 fold change is inactive: 0.038. As for SYNE1 (UniProt Q8NF91), the figure is inactive: -0.02; as for STX17 (UniProt P56962), inactive: 0.016; as for SUPT6H (UniProt Q7KZ85), inactive: -0.033. Under SYAP1 (UniProt Q96A49) stands inactive: 0.093. Take TAL1 (UniProt P17542): the log2 fold change was inactive: 0.058. Regarding SUPV3L1 (UniProt Q8IYB8), the log2 fold change is inactive: 0.023.

For TBC1D10B (UniProt Q4KMP7), the log2 fold change was inactive: 0.036.

For TARBP2 (UniProt Q15633), the log2 fold change was inactive: 0.061.

For the target TATDN3 isoform 3 (UniProt Q17R31), the log2 fold change was inactive: 0.012.

Turning to SVIP (UniProt Q8NHG7), the log2 fold change was inactive: -0.013. As for STRIP1 (UniProt Q5VSL9), the figure is inactive: 0.04; as for SYNJ2 (UniProt O15056), inactive: -0.09; as for STK38 (UniProt Q15208), inactive: 0.079. As for TACC1 isoform 2 (UniProt O75410), the figure is inactive: 0.05; as for SYNCRIP (UniProt O60506), inactive: 0.013; as for STUB1 (UniProt Q9UNE7), inactive: 0.046.
